Source: PubChem BioAssay AID504850 (National Center for Advancing Translational Sciences (NCATS), 2011)
Hit rate of the full screen: of about 2,300 compounds, about 1,200 (52%) were called active. The set was probably picked from earlier hits. This list was built around the results that the source calls inconclusive (neither active nor inactive); the mix of calls is not that of the screen. Calls follow the shape of the dose curve; as a rule, active = well fitted inhibition curve with a large enough effect; inconclusive = small, poorly fitted or top-dose-only effect, or effect the other way; inactive = no such curve, though single readings can be large or run the other way. A potency beside an inconclusive call is a rough fit, not a confirmed value.

assay: Confirmation screen for delayed death inhibitors of the malarial parasite plastid, 48 hour incubation; also: nearly all actives have a fitted effect of over 65% in size; settings: P. falciparum-infected erythrocytes, luciferase growth; series mostly up to 28.7 µM
Procedure, shortened: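 Erythrocytes infected with luciferase-expressing P. falciparum (2% hematocrit, 0.1% parasitemia) incubated with compounds 48 hours at 37 C, 5% CO2, in RPMI/Albumax. Growth inhibition scored as reduced luminescence after detection reagent.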
Potency is read from the fitted curve at half-maximal effect.

SMILES | Potency
Cc1ccc(/C=C/C(=O)NCCCN2CCN(CCCNC(=O)/C=C/c3ccc(C)cc3)CC2)cc1 | inconclusive: 8.91 µM [inhibitor, partial curve, poor fit]
CCOC(=O)c1ccc(Nc2nc(=O)c3cccnc3s2)cc1 | inactive
COc1cc(C(C)=O)ccc1OCC(O)CN1CCN(c2cc(C)cc(C)c2)CC1 (stereo not given) | inconclusive: 12.6 µM [inhibitor, single point]
O=C(CCN1CCN(S(=O)(=O)c2cccc([N+](=O)[O-])c2)CC1)Nc1ccccc1F | inconclusive: 11.2 µM [inhibitor, partial curve, poor fit]
CC(C)(C)c1nnc(NC(=O)CCS(=O)(=O)c2ccccc2)s1 | inconclusive: 15.8 µM [inhibitor, single point]
COc1ccc(OC)c(S(=O)(=O)N(C)CC(=O)N2CCN(c3ccc(F)cc3)CC2)c1 | inconclusive: 11.2 µM [inhibitor, partial curve]
COc1cc(C(=O)NCc2nnc(SCC(=O)N3CCCCCC3)o2)cc(OC)c1OC | inconclusive: 10 µM [inhibitor, partial curve, poor fit]
CCc1c(C(=O)NC2CCCc3ccccc32)[nH]c(C)c1C(C)=O (stereo not given) | inactive
N#CC[C@H](Cc1ccccc1)N1CCN(CCc2ccccc2)CCC1=O | inconclusive: 15.8 µM [inhibitor, single point]
CN(C)c1cccc(C(=O)N(C)C2CCCN(Cc3ccccc3F)C2)c1 (stereo not given) | inconclusive: 14.1 µM [inhibitor, single point]
O=C(c1ccc2c(=O)n3c(nc2c1)CCCCC3)N1CCN(c2ccc([N+](=O)[O-])cc2)CC1 | inconclusive: 12.6 µM [inhibitor, single point]
CC(C)(CNC(=O)/C=C/c1ccc(F)cc1)CNC(=O)/C=C/c1ccc(F)cc1 | inconclusive: 12.6 µM [inhibitor, partial curve, poor fit]
Cc1cccc(Oc2nc3ccccn3c(=O)c2/C=C(\C#N)C(=O)NC2CCS(=O)(=O)C2)c1C (stereo not given) | inconclusive: 14.1 µM [inhibitor, partial curve, poor fit]
COc1cc(C(=O)/C=C/c2cccnc2)ccc1O | active: 12.6 µM
O=C1CC(c2ccccc2Cl)Cc2c1cnn2-c1nc2ccccc2s1 (stereo not given) | inconclusive: 15.8 µM [inhibitor, single point]
COc1ccc(/C=C/c2n[nH]c(=O)c(C#N)c2C)cc1 | inconclusive: 22.4 µM [inhibitor, single point]
O=C(Nc1cccc(Br)c1)c1ccc2snnc2c1 | inactive
C[C@@H](C(=O)Nc1nc2ccc(F)cc2s1)N1C(=O)C2CC=CCC2C1=O (stereo not given in full) | inconclusive: 17.8 µM [inhibitor, single point]
COC(=O)Cc1ccc(NC(=O)C(c2ccccc2)c2ccccc2)cc1 | inconclusive: 12.6 µM [inhibitor, single point]
NC(=O)c1cc([N+](=O)[O-])ccc1NCCc1ccccc1 | inconclusive: 14.1 µM [inhibitor, single point]

SMILES | Potency
CCOc1ccccc1C1N=C(c2ccc(OC)cc2)CC(c2ccccc2O)N1 (stereo not given) | inconclusive: 15.8 µM [inhibitor, partial curve, poor fit]
CCN(CC)C(=O)N1c2ccccc2Sc2ccccc21 | inconclusive: 12.6 µM [inhibitor, partial curve, poor fit]
Cc1cc(C)c(-c2csc(NC(=O)/C=C/c3cccs3)n2)c(C)c1 | inconclusive: 17.8 µM [inhibitor, partial curve, poor fit]
COc1ccc(C(=O)NCCc2c[nH]c3ccccc23)cc1[N+](=O)[O-] | inactive
CC(=O)NC1=C(Nc2ccc(N(C)C)cc2)C(=O)c2ccccc2C1=O | inconclusive: 7.94 µM [inhibitor, partial curve, poor fit]
Cc1ccc(C(=O)C[n+]2ccccc2C)cc1[N+](=O)[O-] | inconclusive: 17.8 µM [inhibitor, partial curve, poor fit]
COc1ccc(CCNS(=O)(=O)c2ccc(Br)s2)cc1 | inactive
CCC(=O)N1CCc2cc(S(=O)(=O)N3CCN(c4cc(Cl)ccc4C)CC3)ccc21 | inactive
Cc1nc(SCC(=O)NCC2CCCO2)c2cc(-c3ccccc3)sc2n1 (stereo not given) | inconclusive: 22.4 µM [inhibitor, single point]
CCCc1cc(C(=O)N2CCCC(N3CCN(c4ccccc4F)CC3)C2)n(C)n1 (stereo not given) | inconclusive: 14.1 µM [inhibitor, single point]
Cc1oc(-c2ccccc2F)nc1CS(=O)(=O)CC(=O)NCCCN1CCN(C)CC1 | inconclusive: 0.158 µM [inhibitor, full curve, poor fit]
O=C(CSc1nnc(NC(=O)c2ccc(F)cc2)s1)NC1CC1 | inconclusive: 5.62 µM [activator, full curve]
COc1ccc(OC)c(NC(=O)CCN2CCN(C/C=C/c3ccccc3)CC2)c1 | inconclusive: 12.6 µM [inhibitor, partial curve]
CCc1nc(SCC(=O)Nc2ccc(N(C)C)cc2)n[nH]1 | inactive
CC(=O)c1ccc(OCc2cc(C(=O)NC(C)c3cnn(C)c3)no2)cc1 (stereo not given) | inconclusive: 22.4 µM [inhibitor, single point]
COCCN(C(=S)Nc1cc(C)cc(C)c1)C(C)c1ccco1 (stereo not given) | inconclusive: 15.8 µM [inhibitor, single point]
CCn1c(C)nc2cc(C(=O)OC(C(F)(F)C(F)F)C(F)(F)C(F)F)ccc21 | inconclusive: 0.501 µM [activator, full curve]
O=C(NC12CC3CC(CC(C3)C1)C2)c1ccc([N+](=O)[O-])o1 | active: 6.31 µM
COc1ccc(CN=C(Nc2ccccc2)SC2CC(=O)NC2=O)cc1 (stereo not given) | inconclusive: 8.91 µM [inhibitor, partial curve]
O=C(Nc1ccccc1C(=O)N1CCCCCC1)c1cccc([N+](=O)[O-])c1 | inconclusive: 14.1 µM [inhibitor, single point]

Given as tab-separated lines: entries from further up
SMILES	Potency
COc1ccc(CCNS(=O)(=O)c2ccc(Br)s2)cc1	inactive
CCC(=O)N1CCc2cc(S(=O)(=O)N3CCN(c4cc(Cl)ccc4C)CC3)ccc21	inactive
Cc1nc(SCC(=O)NCC2CCCO2)c2cc(-c3ccccc3)sc2n1 (stereo not given)	inconclusive: 22.4 µM [inhibitor, single point]
